Data on 40 targets can be found in the supplement of paper PMC7666118.

By UniProt entry, the sequences of proteins in these tests, tags left out. Where a name states a change or a piece, a line headed by the entry shows the natural chain unless it says otherwise.
UniProt Q9NY33: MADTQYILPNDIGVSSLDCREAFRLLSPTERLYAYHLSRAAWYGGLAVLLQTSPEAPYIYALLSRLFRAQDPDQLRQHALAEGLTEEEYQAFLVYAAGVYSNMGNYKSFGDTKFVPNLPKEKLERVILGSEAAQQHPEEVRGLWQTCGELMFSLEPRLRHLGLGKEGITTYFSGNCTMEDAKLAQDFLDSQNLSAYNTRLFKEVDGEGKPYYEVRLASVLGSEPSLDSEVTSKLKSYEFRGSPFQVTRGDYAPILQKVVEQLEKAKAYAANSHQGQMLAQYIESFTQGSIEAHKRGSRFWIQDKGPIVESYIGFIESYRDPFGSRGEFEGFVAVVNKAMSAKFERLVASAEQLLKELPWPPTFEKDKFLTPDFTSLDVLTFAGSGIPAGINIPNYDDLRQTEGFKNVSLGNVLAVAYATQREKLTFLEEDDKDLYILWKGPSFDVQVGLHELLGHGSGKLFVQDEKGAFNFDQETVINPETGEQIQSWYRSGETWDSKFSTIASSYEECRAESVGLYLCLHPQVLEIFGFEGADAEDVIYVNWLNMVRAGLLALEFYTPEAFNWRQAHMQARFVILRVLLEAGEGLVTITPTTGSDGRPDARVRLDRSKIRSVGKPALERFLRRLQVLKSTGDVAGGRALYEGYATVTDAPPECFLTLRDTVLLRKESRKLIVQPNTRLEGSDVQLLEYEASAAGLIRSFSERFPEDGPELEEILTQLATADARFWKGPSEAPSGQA
UniProt P68400, whole entry, looked up: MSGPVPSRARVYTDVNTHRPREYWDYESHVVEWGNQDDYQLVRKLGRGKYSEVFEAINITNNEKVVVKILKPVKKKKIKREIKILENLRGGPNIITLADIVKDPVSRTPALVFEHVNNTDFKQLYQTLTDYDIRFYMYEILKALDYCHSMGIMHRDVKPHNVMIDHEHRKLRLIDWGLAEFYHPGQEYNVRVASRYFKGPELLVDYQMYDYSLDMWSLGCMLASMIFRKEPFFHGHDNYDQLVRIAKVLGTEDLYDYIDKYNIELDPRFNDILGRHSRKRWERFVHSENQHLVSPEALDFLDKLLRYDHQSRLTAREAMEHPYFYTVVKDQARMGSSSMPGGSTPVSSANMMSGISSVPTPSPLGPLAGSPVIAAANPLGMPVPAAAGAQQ
UniProt O43143: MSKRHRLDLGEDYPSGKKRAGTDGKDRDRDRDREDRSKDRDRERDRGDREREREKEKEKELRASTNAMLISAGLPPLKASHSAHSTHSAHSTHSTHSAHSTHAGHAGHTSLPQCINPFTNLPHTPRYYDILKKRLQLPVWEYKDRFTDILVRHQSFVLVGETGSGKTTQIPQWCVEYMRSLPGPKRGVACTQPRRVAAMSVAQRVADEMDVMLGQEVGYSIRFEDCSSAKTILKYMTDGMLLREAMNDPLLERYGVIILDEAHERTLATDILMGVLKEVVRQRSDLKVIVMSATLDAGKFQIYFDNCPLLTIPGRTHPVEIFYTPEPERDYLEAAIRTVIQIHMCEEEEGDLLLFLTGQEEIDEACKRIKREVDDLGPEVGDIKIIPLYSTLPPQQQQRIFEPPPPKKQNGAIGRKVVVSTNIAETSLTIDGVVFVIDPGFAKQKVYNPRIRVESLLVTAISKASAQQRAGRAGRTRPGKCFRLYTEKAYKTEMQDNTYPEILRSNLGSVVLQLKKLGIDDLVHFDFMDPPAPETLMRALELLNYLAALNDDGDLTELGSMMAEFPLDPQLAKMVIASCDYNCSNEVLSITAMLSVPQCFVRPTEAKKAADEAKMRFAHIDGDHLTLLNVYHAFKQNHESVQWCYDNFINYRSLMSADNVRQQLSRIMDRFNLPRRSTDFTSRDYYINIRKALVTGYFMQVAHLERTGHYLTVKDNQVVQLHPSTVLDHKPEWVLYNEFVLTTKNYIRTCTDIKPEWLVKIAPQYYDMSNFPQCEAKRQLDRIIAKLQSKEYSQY
UniProt Q9UJW0, whole entry: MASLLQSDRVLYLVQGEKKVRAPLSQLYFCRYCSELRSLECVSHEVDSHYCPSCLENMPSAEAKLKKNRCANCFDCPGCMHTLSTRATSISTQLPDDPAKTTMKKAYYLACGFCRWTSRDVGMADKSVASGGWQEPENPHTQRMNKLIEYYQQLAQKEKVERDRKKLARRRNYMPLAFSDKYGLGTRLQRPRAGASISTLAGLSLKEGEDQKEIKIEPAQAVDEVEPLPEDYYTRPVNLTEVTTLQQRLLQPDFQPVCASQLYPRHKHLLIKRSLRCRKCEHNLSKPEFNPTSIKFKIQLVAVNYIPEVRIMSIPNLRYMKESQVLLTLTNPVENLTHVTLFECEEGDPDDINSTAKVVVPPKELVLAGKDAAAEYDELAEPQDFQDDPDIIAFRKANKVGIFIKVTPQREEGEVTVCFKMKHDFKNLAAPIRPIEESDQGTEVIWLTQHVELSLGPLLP
UniProt P30046: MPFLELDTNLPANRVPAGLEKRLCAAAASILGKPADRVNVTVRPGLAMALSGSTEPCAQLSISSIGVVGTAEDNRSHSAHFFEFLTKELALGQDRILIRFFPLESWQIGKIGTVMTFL
UniProt Q9Y394: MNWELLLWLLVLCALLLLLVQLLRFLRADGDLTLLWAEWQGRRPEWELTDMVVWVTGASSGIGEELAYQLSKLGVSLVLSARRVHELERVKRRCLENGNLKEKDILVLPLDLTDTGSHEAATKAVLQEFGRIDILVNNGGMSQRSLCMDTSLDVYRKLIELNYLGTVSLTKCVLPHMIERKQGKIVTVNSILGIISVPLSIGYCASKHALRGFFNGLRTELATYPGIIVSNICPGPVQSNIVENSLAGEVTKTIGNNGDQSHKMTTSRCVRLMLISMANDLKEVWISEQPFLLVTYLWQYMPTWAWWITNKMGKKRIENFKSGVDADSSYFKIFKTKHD
UniProt Q99543: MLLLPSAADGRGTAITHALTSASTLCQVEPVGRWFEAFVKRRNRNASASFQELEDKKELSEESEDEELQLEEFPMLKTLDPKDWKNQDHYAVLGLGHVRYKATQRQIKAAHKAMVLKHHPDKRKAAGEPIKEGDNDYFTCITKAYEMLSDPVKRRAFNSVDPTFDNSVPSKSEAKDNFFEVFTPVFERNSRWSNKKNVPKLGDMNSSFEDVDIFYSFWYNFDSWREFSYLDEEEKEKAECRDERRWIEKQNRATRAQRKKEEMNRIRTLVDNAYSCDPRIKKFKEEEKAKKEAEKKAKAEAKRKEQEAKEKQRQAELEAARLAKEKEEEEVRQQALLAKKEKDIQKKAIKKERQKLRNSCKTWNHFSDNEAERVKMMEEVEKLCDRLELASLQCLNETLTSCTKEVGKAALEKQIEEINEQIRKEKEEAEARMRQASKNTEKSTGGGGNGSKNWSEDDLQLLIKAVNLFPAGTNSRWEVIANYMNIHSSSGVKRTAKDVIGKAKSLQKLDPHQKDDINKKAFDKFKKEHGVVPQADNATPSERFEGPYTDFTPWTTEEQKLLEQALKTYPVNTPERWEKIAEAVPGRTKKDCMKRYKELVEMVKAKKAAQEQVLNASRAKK
UniProt Q6UWP2: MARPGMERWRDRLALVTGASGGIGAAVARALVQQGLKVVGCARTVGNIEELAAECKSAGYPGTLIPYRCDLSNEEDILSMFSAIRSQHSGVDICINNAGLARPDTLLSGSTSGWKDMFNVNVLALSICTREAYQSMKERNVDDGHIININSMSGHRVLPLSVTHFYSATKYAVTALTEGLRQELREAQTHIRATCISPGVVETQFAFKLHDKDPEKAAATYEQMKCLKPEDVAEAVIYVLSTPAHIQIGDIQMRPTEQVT
UniProt Q9UHQ9: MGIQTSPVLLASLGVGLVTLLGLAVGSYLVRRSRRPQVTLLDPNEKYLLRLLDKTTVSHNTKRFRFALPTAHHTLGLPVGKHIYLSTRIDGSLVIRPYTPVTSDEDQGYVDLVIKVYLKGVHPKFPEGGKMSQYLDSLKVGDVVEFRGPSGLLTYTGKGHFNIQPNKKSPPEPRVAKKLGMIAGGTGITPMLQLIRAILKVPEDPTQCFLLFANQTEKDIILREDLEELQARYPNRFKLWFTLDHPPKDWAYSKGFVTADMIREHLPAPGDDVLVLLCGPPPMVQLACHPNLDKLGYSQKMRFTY
UniProt Q8IYB7: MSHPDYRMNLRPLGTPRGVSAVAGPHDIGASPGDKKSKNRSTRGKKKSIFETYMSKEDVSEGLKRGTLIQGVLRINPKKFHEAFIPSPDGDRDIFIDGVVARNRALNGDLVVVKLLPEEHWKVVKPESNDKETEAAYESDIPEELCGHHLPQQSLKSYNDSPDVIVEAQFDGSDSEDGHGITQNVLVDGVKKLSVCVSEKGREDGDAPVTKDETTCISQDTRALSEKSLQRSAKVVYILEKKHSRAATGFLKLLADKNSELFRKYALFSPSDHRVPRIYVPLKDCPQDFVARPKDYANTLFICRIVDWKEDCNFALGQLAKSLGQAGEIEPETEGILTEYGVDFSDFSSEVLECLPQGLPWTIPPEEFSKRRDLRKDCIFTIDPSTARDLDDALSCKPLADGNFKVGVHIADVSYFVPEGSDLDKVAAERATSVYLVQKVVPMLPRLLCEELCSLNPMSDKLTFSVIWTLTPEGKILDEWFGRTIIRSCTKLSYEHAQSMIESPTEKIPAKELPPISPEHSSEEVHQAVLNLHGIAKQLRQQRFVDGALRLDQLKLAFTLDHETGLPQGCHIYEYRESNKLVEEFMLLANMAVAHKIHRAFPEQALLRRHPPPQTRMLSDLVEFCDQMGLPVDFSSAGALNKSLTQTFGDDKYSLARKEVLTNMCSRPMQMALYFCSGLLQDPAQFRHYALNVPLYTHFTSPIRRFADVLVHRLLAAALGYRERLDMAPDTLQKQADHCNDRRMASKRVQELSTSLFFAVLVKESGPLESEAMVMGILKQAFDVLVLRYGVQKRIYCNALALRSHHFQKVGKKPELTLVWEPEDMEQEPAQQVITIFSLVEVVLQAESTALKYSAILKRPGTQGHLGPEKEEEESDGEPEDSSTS
UniProt Q96F07, whole entry: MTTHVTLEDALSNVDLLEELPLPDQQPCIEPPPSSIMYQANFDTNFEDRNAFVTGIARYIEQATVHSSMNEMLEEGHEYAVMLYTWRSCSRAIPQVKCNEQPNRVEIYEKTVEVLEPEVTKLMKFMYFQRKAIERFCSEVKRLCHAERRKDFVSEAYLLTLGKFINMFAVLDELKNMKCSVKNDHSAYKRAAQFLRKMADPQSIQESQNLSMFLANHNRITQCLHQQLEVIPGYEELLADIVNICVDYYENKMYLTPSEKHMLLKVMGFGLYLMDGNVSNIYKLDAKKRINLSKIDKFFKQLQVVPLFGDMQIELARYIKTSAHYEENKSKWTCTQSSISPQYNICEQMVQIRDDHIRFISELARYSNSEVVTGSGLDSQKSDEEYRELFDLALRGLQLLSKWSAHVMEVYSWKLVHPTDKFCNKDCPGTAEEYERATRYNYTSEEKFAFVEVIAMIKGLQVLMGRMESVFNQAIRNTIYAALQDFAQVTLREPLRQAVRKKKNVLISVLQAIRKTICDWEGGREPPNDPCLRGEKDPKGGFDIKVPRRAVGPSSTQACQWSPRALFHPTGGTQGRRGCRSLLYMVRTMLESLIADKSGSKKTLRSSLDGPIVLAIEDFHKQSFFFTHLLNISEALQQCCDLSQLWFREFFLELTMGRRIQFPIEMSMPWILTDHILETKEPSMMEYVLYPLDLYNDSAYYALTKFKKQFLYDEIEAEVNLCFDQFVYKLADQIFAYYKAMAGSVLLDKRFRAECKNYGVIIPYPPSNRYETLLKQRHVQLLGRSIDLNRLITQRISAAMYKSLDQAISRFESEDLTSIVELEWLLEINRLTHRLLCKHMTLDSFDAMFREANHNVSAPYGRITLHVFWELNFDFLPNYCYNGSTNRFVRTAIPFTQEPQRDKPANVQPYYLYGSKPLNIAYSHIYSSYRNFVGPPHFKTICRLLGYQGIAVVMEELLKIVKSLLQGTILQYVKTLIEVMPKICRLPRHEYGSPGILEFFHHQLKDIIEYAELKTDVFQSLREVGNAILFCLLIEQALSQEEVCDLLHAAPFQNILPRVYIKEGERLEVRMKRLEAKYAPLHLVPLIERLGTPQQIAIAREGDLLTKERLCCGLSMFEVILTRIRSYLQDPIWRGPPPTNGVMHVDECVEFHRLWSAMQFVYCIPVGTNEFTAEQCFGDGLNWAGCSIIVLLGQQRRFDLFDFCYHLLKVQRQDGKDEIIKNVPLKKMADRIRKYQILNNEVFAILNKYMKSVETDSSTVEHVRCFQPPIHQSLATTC
UniProt Q13561, whole entry: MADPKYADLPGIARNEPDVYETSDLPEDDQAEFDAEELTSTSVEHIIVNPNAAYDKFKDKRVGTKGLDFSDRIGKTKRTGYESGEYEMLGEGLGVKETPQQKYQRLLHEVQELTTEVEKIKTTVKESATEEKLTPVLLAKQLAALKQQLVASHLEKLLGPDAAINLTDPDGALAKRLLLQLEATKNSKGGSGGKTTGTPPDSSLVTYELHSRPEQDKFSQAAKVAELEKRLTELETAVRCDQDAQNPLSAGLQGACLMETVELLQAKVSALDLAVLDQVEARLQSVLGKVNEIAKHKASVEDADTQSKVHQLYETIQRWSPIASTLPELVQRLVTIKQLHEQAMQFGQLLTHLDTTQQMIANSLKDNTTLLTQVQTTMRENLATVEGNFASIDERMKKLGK

The other results are listed elsewhere or left out.

Compound in this assay: COc1ccc(Cn2ccc3cc(C)c(C(=O)NO)cc32)cc1
The experiment in a line: dose-dependent thermal stabilisation call (2D-TPP, DLPTP, 10% FDR) (binary (1 = stabilised)); higher = stabilised by the compound. The following applies: system: HL-60 intact cells; concentration range 0.04-10 µM. As to the method:
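2D thermal proteome profiling in intact HL-60 cells treated with BRD-3811 (0, 0.04, 0.29, 2, 10 uM) for 90 min at 37 C, then heated 3 min at one of 12 temperatures (42-63.9 C). Soluble protein was quantified by TMT10 MS. The value is the DLPTP call of the paper: dose-dependent thermal stabilisation over all temperatures at 10% FDR (F-test of a dose-response against a flat model); one experiment, one call per tested protein.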
In the case of DEK (UniProt P35659), the “dose-dependent thermal stabilisation call” value is inactive: 0. The figure for DPP3 (UniProt Q9NY33) is inactive: 0; for DHODH (UniProt Q02127) it is inactive: 0. The result for CSNK2A1 (UniProt P68400) reads inactive: 0; that for DHX15 (UniProt O43143), inactive: 0; that for DCTN4 (UniProt Q9UJW0), inactive: 0.

For CXCR4 (UniProt P61073), the “dose-dependent thermal stabilisation call” value was inactive: 0. For CTBS (UniProt Q01459), the “dose-dependent thermal stabilisation call” value is inactive: 0.

In the case of DARS2 (UniProt Q6PI48), the “dose-dependent thermal stabilisation call” value was inactive: 0. The figure for DDT (UniProt P30046) is inactive: 0; for DPH1 (UniProt Q9BZG8) it is inactive: 0; for DHX34 (UniProt Q14147) it is inactive: 0.

Take DBNL (UniProt Q9UJU6): the “dose-dependent thermal stabilisation call” value was inactive: 0. Turning to DDX56 (UniProt Q9NY93), the “dose-dependent thermal stabilisation call” value was inactive: 0. The figure for DHRS7 (UniProt Q9Y394) is inactive: 0; for DOM3Z (UniProt O77932) it is inactive: 0; for DGCR8 (UniProt Q8WYQ5) it is inactive: 0. Take DHDDS (UniProt Q86SQ9): the “dose-dependent thermal stabilisation call” value was inactive: 0.

For CTSS (UniProt P25774), the “dose-dependent thermal stabilisation call” value was inactive: 0. The result for DNAJC2 (UniProt Q99543) reads inactive: 0; that for DNAJB6 (UniProt O75190), inactive: 0; that for DENND4A (UniProt Q7Z401), inactive: 0. Consider DHRS11 (UniProt Q6UWP2), for which the “dose-dependent thermal stabilisation call” value is inactive: 0. The result for DOK1 (UniProt Q99704) reads inactive: 0; that for CYB5R1 (UniProt Q9UHQ9), inactive: 0. In the case of DNAJC6 (UniProt O75061), the “dose-dependent thermal stabilisation call” value is inactive: 0. The figure for DENND4C (UniProt Q5VZ89) is inactive: 0; for DIS3L2 (UniProt Q8IYB7) it is inactive: 0; for DIABLO (UniProt Q9NR28) it is inactive: 0.

Take CTH (UniProt P32929): the “dose-dependent thermal stabilisation call” value was inactive: 0. As to DDX28 (UniProt Q9NUL7), the “dose-dependent thermal stabilisation call” value is inactive: 0. The figure for DNAJA3 (UniProt Q96EY1) is inactive: 0.

As to CXORF56 (UniProt Q9H5V9), the “dose-dependent thermal stabilisation call” value was inactive: 0. The figure for CYFIP2 (UniProt Q96F07) is inactive: 0; for DOCK10 (UniProt Q96BY6) it is inactive: 0. With CUL3 (UniProt Q13618), the “dose-dependent thermal stabilisation call” value was inactive: 0. The figure for CTSW (UniProt P56202) is inactive: 0; for DCTN2 (UniProt Q13561) it is inactive: 0; for DDX54 (UniProt Q8TDD1) it is inactive: 0. The figure for DDOST (UniProt P39656) is inactive: 0.
